Measured values reported in the supplement of paper PMC6411743.
± gives the standard deviation of the averaged measurements. The list shows a part of the results, in another mix than the full data.

Protein sequences, listed by entry. Tags and fused reporters are not part of them. Lines headed by an entry give the natural chain unless they say otherwise; changes in a name come on top.
UniProt Q96IJ6: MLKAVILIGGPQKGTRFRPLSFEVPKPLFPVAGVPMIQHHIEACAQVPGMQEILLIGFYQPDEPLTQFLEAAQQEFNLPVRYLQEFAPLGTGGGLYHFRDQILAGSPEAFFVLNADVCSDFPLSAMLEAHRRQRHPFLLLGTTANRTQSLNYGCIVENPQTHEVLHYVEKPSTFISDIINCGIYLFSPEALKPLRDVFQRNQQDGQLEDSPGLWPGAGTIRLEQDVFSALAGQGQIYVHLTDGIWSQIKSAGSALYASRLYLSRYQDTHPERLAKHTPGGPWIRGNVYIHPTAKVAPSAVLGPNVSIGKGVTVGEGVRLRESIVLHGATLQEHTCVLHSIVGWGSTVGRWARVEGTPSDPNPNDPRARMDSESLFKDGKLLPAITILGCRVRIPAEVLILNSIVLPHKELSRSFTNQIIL
UniProt Q96PM5: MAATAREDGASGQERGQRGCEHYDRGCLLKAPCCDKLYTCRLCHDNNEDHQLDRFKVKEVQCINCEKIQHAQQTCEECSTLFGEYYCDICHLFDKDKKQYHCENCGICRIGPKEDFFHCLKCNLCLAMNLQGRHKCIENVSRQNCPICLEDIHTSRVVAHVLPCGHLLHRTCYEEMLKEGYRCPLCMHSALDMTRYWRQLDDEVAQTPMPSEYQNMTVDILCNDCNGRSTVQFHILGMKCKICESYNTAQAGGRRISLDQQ
UniProt Q96CD0: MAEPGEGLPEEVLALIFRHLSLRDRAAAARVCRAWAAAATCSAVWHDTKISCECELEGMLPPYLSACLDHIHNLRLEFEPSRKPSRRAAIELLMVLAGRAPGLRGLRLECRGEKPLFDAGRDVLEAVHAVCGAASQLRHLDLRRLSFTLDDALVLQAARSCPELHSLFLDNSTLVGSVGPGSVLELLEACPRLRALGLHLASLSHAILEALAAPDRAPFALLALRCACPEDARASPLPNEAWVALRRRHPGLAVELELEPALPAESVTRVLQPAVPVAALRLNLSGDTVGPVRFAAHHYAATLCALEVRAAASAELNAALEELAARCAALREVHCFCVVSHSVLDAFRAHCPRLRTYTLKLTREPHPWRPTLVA
UniProt Q96G23: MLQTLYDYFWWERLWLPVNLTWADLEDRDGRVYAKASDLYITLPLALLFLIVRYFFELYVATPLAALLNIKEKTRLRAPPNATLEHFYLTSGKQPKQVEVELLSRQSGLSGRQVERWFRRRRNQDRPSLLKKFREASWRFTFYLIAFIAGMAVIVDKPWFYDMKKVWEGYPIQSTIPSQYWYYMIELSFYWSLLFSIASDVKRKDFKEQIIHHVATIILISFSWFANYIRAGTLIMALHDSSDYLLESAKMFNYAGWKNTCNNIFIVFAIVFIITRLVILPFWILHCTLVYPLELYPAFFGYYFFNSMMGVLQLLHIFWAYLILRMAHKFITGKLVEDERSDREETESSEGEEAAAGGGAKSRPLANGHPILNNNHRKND
UniProt Q96F07, whole entry: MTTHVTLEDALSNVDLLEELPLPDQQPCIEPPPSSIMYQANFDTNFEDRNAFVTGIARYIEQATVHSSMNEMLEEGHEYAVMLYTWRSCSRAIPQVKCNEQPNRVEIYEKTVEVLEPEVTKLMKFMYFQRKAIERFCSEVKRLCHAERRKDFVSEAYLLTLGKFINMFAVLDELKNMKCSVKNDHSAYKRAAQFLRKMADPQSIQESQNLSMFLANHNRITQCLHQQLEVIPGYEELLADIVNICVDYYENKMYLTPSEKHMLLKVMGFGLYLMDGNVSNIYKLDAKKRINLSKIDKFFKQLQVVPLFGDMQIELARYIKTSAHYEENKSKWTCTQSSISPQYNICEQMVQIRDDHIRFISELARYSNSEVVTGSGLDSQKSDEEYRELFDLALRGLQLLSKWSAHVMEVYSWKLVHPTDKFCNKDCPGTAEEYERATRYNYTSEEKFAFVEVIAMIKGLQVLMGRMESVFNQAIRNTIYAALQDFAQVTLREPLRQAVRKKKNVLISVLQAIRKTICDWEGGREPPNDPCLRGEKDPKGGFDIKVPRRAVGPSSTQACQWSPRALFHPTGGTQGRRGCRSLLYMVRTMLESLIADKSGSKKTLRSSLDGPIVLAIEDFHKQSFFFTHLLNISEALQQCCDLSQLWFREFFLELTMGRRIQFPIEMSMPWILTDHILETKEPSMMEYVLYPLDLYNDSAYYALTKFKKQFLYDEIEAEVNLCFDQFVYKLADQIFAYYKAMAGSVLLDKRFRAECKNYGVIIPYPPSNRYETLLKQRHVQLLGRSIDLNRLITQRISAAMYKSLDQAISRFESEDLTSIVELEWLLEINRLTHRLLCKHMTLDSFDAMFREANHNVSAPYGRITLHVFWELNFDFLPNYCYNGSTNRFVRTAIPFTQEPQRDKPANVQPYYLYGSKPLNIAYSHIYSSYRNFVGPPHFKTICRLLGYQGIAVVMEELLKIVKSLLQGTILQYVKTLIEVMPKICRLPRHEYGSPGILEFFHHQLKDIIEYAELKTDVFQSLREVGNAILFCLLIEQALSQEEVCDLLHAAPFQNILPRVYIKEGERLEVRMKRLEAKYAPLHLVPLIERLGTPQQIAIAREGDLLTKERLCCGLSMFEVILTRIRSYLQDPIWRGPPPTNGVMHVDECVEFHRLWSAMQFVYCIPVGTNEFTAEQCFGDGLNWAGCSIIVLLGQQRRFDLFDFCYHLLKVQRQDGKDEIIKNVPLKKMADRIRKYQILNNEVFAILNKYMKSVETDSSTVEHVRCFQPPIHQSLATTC
UniProt Q96DA6: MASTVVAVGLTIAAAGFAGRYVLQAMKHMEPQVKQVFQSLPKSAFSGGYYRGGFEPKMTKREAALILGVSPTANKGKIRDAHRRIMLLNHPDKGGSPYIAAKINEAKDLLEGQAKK
UniProt Q96BY7: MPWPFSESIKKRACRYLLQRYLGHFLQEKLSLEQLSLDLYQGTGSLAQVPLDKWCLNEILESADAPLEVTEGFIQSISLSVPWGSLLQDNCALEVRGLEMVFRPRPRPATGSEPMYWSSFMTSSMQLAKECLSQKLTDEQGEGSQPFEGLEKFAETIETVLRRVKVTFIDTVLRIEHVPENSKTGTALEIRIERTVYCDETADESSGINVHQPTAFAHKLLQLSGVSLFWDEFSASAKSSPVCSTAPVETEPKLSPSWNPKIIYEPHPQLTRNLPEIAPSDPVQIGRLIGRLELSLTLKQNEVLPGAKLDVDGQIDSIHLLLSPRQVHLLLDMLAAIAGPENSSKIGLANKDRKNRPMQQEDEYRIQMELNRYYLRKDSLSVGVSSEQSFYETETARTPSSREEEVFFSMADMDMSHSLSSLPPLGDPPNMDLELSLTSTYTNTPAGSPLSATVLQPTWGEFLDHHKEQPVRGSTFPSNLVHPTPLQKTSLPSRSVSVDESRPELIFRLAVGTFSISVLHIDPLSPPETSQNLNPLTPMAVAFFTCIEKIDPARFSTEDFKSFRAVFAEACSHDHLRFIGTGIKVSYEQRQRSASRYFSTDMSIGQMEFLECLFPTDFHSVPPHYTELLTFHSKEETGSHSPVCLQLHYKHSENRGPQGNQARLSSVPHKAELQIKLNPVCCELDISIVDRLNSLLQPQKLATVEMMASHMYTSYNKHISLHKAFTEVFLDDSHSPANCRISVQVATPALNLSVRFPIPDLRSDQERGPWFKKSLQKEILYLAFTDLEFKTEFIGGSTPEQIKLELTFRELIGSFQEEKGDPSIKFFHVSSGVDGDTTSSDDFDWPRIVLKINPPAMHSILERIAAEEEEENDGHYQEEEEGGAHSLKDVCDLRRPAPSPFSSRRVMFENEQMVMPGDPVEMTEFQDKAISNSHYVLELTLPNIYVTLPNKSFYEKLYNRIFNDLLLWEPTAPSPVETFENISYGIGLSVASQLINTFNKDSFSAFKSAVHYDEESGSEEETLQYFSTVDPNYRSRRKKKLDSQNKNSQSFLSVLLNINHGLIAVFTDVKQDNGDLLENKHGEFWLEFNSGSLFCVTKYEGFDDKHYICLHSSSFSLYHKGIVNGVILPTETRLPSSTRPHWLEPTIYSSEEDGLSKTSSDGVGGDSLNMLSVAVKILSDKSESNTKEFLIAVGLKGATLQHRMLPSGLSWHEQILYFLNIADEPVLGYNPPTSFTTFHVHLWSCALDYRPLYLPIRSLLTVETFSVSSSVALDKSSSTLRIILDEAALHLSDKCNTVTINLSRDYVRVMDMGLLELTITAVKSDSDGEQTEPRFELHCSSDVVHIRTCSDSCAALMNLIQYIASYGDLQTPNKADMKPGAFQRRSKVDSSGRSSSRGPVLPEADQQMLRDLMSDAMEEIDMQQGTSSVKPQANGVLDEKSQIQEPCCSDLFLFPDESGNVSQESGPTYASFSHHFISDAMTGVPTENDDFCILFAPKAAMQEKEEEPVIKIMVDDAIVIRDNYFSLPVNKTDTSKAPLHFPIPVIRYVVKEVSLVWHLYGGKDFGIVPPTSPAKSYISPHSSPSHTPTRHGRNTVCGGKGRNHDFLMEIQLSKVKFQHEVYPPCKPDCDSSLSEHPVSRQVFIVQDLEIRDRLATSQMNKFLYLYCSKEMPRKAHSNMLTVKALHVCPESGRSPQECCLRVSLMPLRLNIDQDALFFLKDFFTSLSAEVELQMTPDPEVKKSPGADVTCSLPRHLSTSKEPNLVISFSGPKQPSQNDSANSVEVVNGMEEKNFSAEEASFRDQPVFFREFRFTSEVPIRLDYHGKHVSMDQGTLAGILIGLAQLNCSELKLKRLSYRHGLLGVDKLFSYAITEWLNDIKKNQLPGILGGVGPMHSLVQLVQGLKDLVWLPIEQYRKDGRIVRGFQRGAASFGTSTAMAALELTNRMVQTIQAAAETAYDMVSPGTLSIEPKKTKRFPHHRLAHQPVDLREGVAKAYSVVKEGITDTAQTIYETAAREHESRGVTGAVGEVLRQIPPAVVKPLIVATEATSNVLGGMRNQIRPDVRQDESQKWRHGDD
UniProt Q96JC1: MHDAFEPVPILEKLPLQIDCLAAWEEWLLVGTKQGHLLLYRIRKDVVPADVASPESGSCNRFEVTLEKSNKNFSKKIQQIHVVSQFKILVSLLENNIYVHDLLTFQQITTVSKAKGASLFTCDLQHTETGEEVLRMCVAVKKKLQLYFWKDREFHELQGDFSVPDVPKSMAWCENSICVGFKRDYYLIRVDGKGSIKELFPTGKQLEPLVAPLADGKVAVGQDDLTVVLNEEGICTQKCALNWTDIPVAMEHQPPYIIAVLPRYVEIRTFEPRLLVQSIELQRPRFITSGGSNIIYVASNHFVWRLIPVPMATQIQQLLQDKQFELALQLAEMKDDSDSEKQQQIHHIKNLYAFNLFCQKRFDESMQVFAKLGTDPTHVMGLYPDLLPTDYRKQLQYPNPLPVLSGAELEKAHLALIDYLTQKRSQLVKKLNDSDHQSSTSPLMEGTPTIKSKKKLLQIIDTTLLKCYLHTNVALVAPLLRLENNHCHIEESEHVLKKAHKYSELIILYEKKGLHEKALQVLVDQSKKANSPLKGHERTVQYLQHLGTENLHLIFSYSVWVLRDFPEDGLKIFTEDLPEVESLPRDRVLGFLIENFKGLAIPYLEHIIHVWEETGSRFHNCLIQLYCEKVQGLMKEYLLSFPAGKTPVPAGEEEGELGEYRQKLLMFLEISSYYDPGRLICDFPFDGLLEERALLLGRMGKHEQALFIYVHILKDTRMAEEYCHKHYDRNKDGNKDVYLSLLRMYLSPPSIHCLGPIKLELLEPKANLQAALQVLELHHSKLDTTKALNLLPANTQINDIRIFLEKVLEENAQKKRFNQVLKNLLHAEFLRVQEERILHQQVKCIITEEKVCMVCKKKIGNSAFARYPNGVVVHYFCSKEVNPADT
UniProt Q96RP9: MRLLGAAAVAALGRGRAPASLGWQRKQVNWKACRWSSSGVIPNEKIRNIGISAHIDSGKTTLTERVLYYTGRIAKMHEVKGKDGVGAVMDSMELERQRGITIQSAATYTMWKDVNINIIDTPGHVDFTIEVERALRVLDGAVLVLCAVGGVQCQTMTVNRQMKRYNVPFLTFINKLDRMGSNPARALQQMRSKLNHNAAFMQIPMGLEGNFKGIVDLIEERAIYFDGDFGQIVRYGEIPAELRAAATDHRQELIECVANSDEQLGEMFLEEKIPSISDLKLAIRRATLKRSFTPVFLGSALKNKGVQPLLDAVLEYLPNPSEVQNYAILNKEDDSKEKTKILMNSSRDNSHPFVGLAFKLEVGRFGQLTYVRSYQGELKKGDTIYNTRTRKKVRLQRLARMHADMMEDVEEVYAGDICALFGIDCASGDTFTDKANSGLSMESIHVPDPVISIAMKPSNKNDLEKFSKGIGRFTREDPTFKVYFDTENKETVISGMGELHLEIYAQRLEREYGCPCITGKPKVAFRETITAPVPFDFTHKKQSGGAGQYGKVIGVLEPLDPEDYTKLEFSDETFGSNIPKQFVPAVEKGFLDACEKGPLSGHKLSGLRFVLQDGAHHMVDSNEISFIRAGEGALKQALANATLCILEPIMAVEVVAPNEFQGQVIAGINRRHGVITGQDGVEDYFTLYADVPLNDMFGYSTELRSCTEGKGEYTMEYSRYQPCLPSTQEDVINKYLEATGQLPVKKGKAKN

Compound: Nc1ncnc2c1ncn2[C@@H]1O[C@H](COP(=O)(O)OP(=O)(O)OP(=O)(O)O)[C@@H](O)[C@H]1O [adenosine triphosphate]
Experiment: NP40-soluble protein abundance relative to vehicle (solubility fold change) (ratio); higher = more soluble protein in presence of ATP
Procedure, shortened: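 Data come from three independent experiments in which Dounce-homogenised Jurkat crude lysate was treated at eight concentrations from 0.1 to 10 mM. Treatment ran 10 min at room temperature and then 3 min at 37 °C, after which 0.8% NP40 and benzonase were added for 60 min at 4 °C before ultracentrifugation. The supernatant underwent TMT labelling and LC-MS/MS, and vsn-normalised intensities were expressed as fold change against the detergent-processed vehicle in each replicate.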

Target	NP40-soluble protein abundance (concentration: 1mM)	NP40-soluble protein abundance (concentration: 2mM)	NP40-soluble protein abundance (concentration: 4mM)	NP40-soluble protein abundance (concentration: 6mM)	NP40-soluble protein abundance (concentration: 8mM)	NP40-soluble protein abundance (concentration: 10mM)
PPWD1 (UniProt Q96BP3)	1.01 ± 0.074	1.03 ± 0.068	1.04 ± 0.068	1.04 ± 0.07	1.14 ± 0.056	1.16 ± 0.064
RSPRY1 (UniProt Q96DX4)	1.08 ± 0.2	1.07 ± 0.12	1.05 ± 0.061	1.04 ± 0.085	1.09 ± 0.075	1.09 ± 0.18
UniProt Q96FJ2	1 ± 0.11	0.941 ± 0.068	0.883 ± 0.095	0.993 ± 0.12	0.994 ± 0.034	0.87 ± 0.15
LRRC58 (UniProt Q96CX6)	0.949 ± 0.035	0.934 ± 0.022	0.98 ± 0.026	0.936 ± 0.029	0.905 ± 0.033	0.9095 ± 0.0077
RBM14 (UniProt Q96PK6)	0.997 ± 0.011	1.02 ± 0.018	1.034 ± 0.0033	1.09 ± 0.015	1.07 ± 0.028	1.06 ± 0.013
UniProt Q96EH3	1.05 ± 0.035	0.974 ± 0.061	0.979 ± 0.074	0.9176 ± 0.0085	0.933 ± 0.019	0.909 ± 0.084
PIGS (UniProt Q96S52)	1.02 ± 0.12	1.02 ± 0.043	0.997 ± 0.076	0.945 ± 0.098	1.02 ± 0.022	1.03 ± 0.037
RAB39B (UniProt Q96DA2)	1.06 ± 0.14	1.05 ± 0.15	1.08 ± 0.15	1 ± 0.18	1.06 ± 0.18	1 ± 0.12
INTS4 (UniProt Q96HW7)	1.13 ± 0.039	1.11 ± 0.026	1.15 ± 0.08	1.13 ± 0.053	1.2 ± 0.055	1.19 ± 0.043
FAM111A (UniProt Q96PZ2)	1.22 ± 0.12	1.26 ± 0.13	1.3 ± 0.11	1.36 ± 0.2	1.35 ± 0.073	1.47 ± 0.18
UniProt Q96L93 and related entries	1.02 ± 0.013	1.01 ± 0.027	1.07 ± 0.037	1.03 ± 0.05	1.02 ± 0.057	1.05 ± 0.025
RBM18 (UniProt Q96H35)	0.929 ± 0.093	0.9153 ± 0.0066	0.96 ± 0.11	0.887 ± 0.13	0.955 ± 0.022	0.898 ± 0.12
UniProt Q96IJ6 and related entries	1.02 ± 0.071	0.995 ± 0.053	0.98 ± 0.039	0.984 ± 0.07	1 ± 0.024	0.952 ± 0.047
FAM122A (UniProt Q96E09)	1.01 ± 0.15	0.954 ± 0.057	0.965 ± 0.077	0.955 ± 0.12	0.999 ± 0.16	1 ± 0.089
ZC3HAV1L (UniProt Q96H79)	1 ± 0.081	0.983 ± 0.021	0.971 ± 0.037	0.975 ± 0.041	0.954 ± 0.05	0.968 ± 0.051
UniProt Q96JM7 and related entries	1.11 ± 0.088	1.09 ± 0.055	1.1 ± 0.044	1.09 ± 0.075	1.16 ± 0.038	1.14 ± 0.06
GNPNAT1 (UniProt Q96EK6)	1.03 ± 0.038	1.04 ± 0.041	0.984 ± 0.06	1.03 ± 0.063	0.985 ± 0.045	0.993 ± 0.059
UniProt Q96PM5 and related entries	1.02 ± 0.055	1.04 ± 0.037	1.03 ± 0.062	1.03 ± 0.07	1.01 ± 0.051	1.01 ± 0.052
ZNF830 (UniProt Q96NB3)	1.16 ± 0.079	1.14 ± 0.056	1.11 ± 0.079	1.16 ± 0.11	1.1 ± 0.047	1.1 ± 0.069
NSL1 (UniProt Q96IY1)	1.01 ± 0.048	0.966 ± 0.017	0.937 ± 0.014	0.94 ± 0.016	0.952 ± 0.035	0.955 ± 0.026

Target	NP40-soluble protein abundance (concentration: 1mM)	NP40-soluble protein abundance (concentration: 2mM)	NP40-soluble protein abundance (concentration: 4mM)	NP40-soluble protein abundance (concentration: 6mM)	NP40-soluble protein abundance (concentration: 8mM)	NP40-soluble protein abundance (concentration: 10mM)
FBXL8 (UniProt Q96CD0)	0.963 ± 0.11	0.979 ± 0.073	1.01 ± 0.079	0.966 ± 0.097	0.968 ± 0.069	0.94 ± 0.035
CDKN2AIPNL (UniProt Q96HQ2)	0.909 ± 0.022	0.922 ± 0.099	0.951 ± 0.071	0.972 ± 0.068	0.8968 ± 0.0022	0.859 ± 0.16
UniProt Q96G23	0.896 ± 0.062	0.962 ± 0.035	0.951 ± 0.034	0.89 ± 0.1	0.948 ± 0.036	0.978 ± 0.041
UniProt Q96IG2 and related entries	0.988 ± 0.092	0.985 ± 0.066	0.995 ± 0.043	0.954 ± 0.072	0.983 ± 0.021	1.01 ± 0.058
UniProt Q96HE7	0.933 ± 0.042	0.94 ± 0.019	0.8866 ± 0.0082	0.9 ± 0.076	0.886 ± 0.031	0.912 ± 0.039
UniProt Q96D71 and related entries	1.01 ± 0.078	1.04 ± 0.058	1.06 ± 0.046	1.07 ± 0.064	1.04 ± 0.061	1.07 ± 0.044
MMAB (UniProt Q96EY8)	0.991 ± 0.033	1 ± 0.05	1 ± 0.035	1.02 ± 0.037	0.9644 ± 0.0066	0.932 ± 0.034
PLEKHF1 (UniProt Q96S99)	0.979 ± 0.056	0.997 ± 0.05	0.962 ± 0.037	0.901 ± 0.063	0.951 ± 0.042	0.968 ± 0.019
CCNL2 (UniProt Q96S94)	0.88699 ± 0.00036	0.876 ± 0.021	0.799 ± 0.029	0.844 ± 0.0093	0.783 ± 0.012	0.861 ± 0.037
UniProt Q96EV8 and related entries	0.971 ± 0.024	0.962 ± 0.026	0.9673 ± 0.0042	0.981 ± 0.047	0.951 ± 0.018	0.923 ± 0.041
KCTD12 (UniProt Q96CX2)	0.932 ± 0.01	0.932 ± 0.013	0.968 ± 0.074	0.925 ± 0.019	0.901 ± 0.072	0.92 ± 0.017
UniProt Q96F07-2|E7EVJ5	1.02 ± 0.12	0.993 ± 0.098	1 ± 0.069	0.874 ± 0.12	1.02 ± 0.014	0.985 ± 0.079
UniProt Q96BT7 and related entries	1.03 ± 0.082	1.05 ± 0.037	1.08 ± 0.07	1.01 ± 0.059	1.03 ± 0.046	1.08 ± 0.12
UniProt Q96DA6 and related entries	0.956 ± 0.072	0.983 ± 0.071	0.969 ± 0.051	0.971 ± 0.11	0.992 ± 0.044	0.92 ± 0.068
UniProt Q96L73 and related entries	0.992 ± 0.11	1.11 ± 0.098	1.09 ± 0.13	1.17 ± 0.27	1.16 ± 0.35	1.3 ± 0.34
CHMP6 (UniProt Q96FZ7)	0.9385 ± 0.0037	0.921 ± 0.016	0.957 ± 0.015	0.938 ± 0.014	0.978 ± 0.1	0.912 ± 0.15
RBMXL1 (UniProt Q96E39)	1.1 ± 0.069	1.2 ± 0.013	1.35 ± 0.039	1.461 ± 0.0086	1.56 ± 0.02	1.66 ± 0.095
THOC3 (UniProt Q96J01)	1.17 ± 0.12	1.16 ± 0.086	1.18 ± 0.1	1.26 ± 0.081	1.36 ± 0.14	1.33 ± 0.067
UniProt Q96GJ1-2	1.18 ± 0.33	1.1 ± 0.13	1.22 ± 0.34	1.03 ± 0.29	1.12 ± 0.3	1.12 ± 0.091
ANKRD27 (UniProt Q96NW4)	1.02 ± 0.046	1.05 ± 0.067	1.01 ± 0.049	1 ± 0.09	1.01 ± 0.039	1.03 ± 0.039

2 entries drawn at random from those above, as already listed:
Target	NP40-soluble protein abundance (concentration: 1mM)	NP40-soluble protein abundance (concentration: 2mM)	NP40-soluble protein abundance (concentration: 4mM)	NP40-soluble protein abundance (concentration: 6mM)	NP40-soluble protein abundance (concentration: 8mM)	NP40-soluble protein abundance (concentration: 10mM)
KCTD12 (UniProt Q96CX2)	0.932 ± 0.01	0.932 ± 0.013	0.968 ± 0.074	0.925 ± 0.019	0.901 ± 0.072	0.92 ± 0.017
UniProt Q96GJ1-2	1.18 ± 0.33	1.1 ± 0.13	1.22 ± 0.34	1.03 ± 0.29	1.12 ± 0.3	1.12 ± 0.091

Further entries follow.

Target	NP40-soluble protein abundance (concentration: 1mM)	NP40-soluble protein abundance (concentration: 2mM)	NP40-soluble protein abundance (concentration: 4mM)	NP40-soluble protein abundance (concentration: 6mM)	NP40-soluble protein abundance (concentration: 8mM)	NP40-soluble protein abundance (concentration: 10mM)
UniProt Q96JG8 and related entries	1.05 ± 0.041	1.1 ± 0.019	1.06 ± 0.054	1.04 ± 0.13	1.1 ± 0.12	1.07 ± 0.094
UniProt Q96MH6 and related entries	1.05 ± 0.16	1.1 ± 0.1	1.06 ± 0.099	1.01 ± 0.13	1.08 ± 0.032	1.01 ± 0.015
CNDP2 (UniProt Q96KP4)	1.01 ± 0.053	1.01 ± 0.07	0.954 ± 0.059	0.964 ± 0.11	0.977 ± 0.065	0.971 ± 0.072
ATG2B (UniProt Q96BY7)	0.864 ± 0.036	0.894 ± 0.034	0.991 ± 0.026	1.06 ± 0.041	1.07 ± 0.019	1.09 ± 0.055
NARS2 (UniProt Q96I59)	1.01 ± 0.12	0.998 ± 0.1	1.01 ± 0.11	0.929 ± 0.15	1.01 ± 0.068	0.994 ± 0.057
METTL2A (UniProt Q96IZ6)	0.992 ± 0.19	0.916 ± 0.083	0.914 ± 0.099	0.947 ± 0.12	0.924 ± 0.17	0.921 ± 0.069
UniProt Q96S19 and related entries	1 ± 0.026	0.996 ± 0.042	1.01 ± 0.042	0.95 ± 0.064	0.987 ± 0.048	0.968 ± 0.083
UniProt Q96SD1 and related entries	0.945 ± 0.068	0.906 ± 0.092	0.947 ± 0.026	1 ± 0.028	0.944 ± 0.051	0.939 ± 0.0097
UniProt Q96JJ7	0.966 ± 0.015	0.981 ± 0.011	0.999 ± 0.028	0.924 ± 0.083	0.976 ± 0.017	0.981 ± 0.026
ALKBH3 (UniProt Q96Q83)	0.986 ± 0.028	1.01 ± 0.013	1.02 ± 0.018	1 ± 0.052	1 ± 0.042	1.01 ± 0.065
UniProt Q96JC1 and related entries	0.965 ± 0.16	0.986 ± 0.084	1.04 ± 0.087	0.887 ± 0.13	0.971 ± 0.11	1.03 ± 0.043
UniProt Q96P16 and related entries	0.995 ± 0.056	1.02 ± 0.015	1.03 ± 0.015	1.046 ± 0.0049	1.02 ± 0.028	0.982 ± 0.063
UniProt Q96QD8 and related entries	1.03 ± 0.078	1.03 ± 0.052	0.987 ± 0.011	1.1 ± 0.031	0.916 ± 0.013	0.908 ± 0.046
DPH3 (UniProt Q96FX2)	0.906 ± 0.15	0.917 ± 0.2	0.981 ± 0.056	1.03 ± 0.19	0.953 ± 0.13	0.942 ± 0.16
SIN3A (UniProt Q96ST3)	1.06 ± 0.047	1.03 ± 0.028	1.02 ± 0.024	1.04 ± 0.046	1.08 ± 0.021	1.07 ± 0.038
UniProt Q96RP9 and related entries	1.01 ± 0.023	0.986 ± 0.05	0.97 ± 0.04	0.971 ± 0.076	0.972 ± 0.012	0.962 ± 0.032
UniProt Q96FH0 and related entries	0.902 ± 0.026	0.896 ± 0.065	1.06 ± 0.084	0.94 ± 0.097	0.887 ± 0.057	0.854 ± 0.028
UniProt Q96IQ9-2|Q96IQ9	0.9572 ± 0.0015	1.02 ± 0.013	0.973 ± 0.058	0.977 ± 0.054	0.951 ± 0.017	0.958 ± 0.036
LIN37 (UniProt Q96GY3)	0.949 ± 0.091	0.983 ± 0.075	0.969 ± 0.055	1.03 ± 0.056	1.03 ± 0.038	1.03 ± 0.12
UniProt Q96N46 and related entries	0.984 ± 0.038	1.02 ± 0.052	1.06 ± 0.19	1.13 ± 0.17	1.13 ± 0.14	1.19 ± 0.14
